According to publication PMC11905417:
These are yes or no findings as the source states them, for the method shown. In cells and extracts the contact can be indirect. Some results given as binding are weak or reduced against the parent protein; the word gives no strength.

Chains of the proteins cited; added tags and fusions are not shown.
UniProt P33552: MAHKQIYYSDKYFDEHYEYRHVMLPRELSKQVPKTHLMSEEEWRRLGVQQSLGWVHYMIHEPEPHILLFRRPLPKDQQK

Biological target: T1, thioredoxin (TXN) (human (endogenous in MM cells: MM.1S, RPMI-8226)) (UniProt P10599)
T1 sequence: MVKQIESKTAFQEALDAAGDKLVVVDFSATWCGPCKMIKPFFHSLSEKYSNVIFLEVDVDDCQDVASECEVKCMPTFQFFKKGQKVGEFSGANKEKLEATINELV
Assay: co-IP; MM cells lysed with NP-40 on ice; 4 ug anti-TXN antibody (IgG as control) overnight at 4°C, magnetic beads 4 h at 4°C, washed with NP-40 lysis buffer; detection by western blot

For “cyclin-dependent kinase regulatory subunit 2 (CKS2) (from UniProt P33552 1-79)”, which binding is on record?
Its binding is “binds”.
